Taken from: PubChem BioAssay AID686938 (Drosophila RNAi Screening Center, 2013)

Screen: 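Looking for CRAC channel components and the factors controlling them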 (primary screen)
Cell system: Drosophila S2R+ cells
Reagents: long dsRNA against Drosophila genes, about 0.25 µg dsRNA per well, roughly 10,000 cells
Time to read-out: 5 days of knock-down before the calcium assay
Treatment: thapsigargin (SERCA pump blocker) to empty calcium stores; entry signal taken 4 min after adding it
Measured: 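Per-well fluo-4 fluorescence in two replicates, unnormalised, measured in resting cells and 4 min after store depletion by the SERCA blocker thapsigargin; ratio of the two present in few wells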
Reading the numbers: calcium entry signal: higher = stronger calcium signal after store depletion; resting calcium signal: higher = higher resting calcium signal
Units: calcium entry signal in fluorescence units; resting calcium signal in fluorescence units
Active means: 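Called when the plate z-score of the entry-to-rest ratio, mean of duplicates, falls below −3; wells with low overall dye signal (Fmax z below −2) or more than five off-targets excluded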
Calls: active = strongly reduced calcium entry; inactive = no strong reduction
The screen tested about 23,000 reagents; below is an unselected part of those that have a named target and a result. In the full data, 75 (0.33%) were called active. 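Raw plate signals without normalisation; calls rest on plate z-scores that were not deposited; ratio present for only 364 wells.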 Not stated in the record: the dose of the treatment.

Srp72 [DRSC15800] gave calcium entry signal, replicate 1 = 4.75e7; calcium entry signal, replicate 2 = 4.19e7; resting calcium signal, replicate 1 = 2.39e7; resting calcium signal, replicate 2 = 2.00e7; inactive.
After knock-down of noc [DRSC03580], the record shows calcium entry signal, replicate 1 = 4.94e7; resting calcium signal, replicate 1 = 2.37e7; inactive.
After knock-down of CG34434 [DRSC18134], the record shows calcium entry signal, replicate 1 = 2.49e7; calcium entry signal, replicate 2 = 2.84e7; resting calcium signal, replicate 1 = 1.31e7; resting calcium signal, replicate 2 = 1.43e7; inactive.
SmF [DRSC07397] showed calcium entry signal, replicate 1 = 1.60e7; calcium entry signal, replicate 2 = 2.11e7; resting calcium signal, replicate 1 = 1.13e7; resting calcium signal, replicate 2 = 1.31e7; inactive.
PH4alphaNE1 [DRSC16546] showed calcium entry signal, replicate 1 = 3.69e7; calcium entry signal, replicate 2 = 4.38e7; resting calcium signal, replicate 1 = 1.65e7; resting calcium signal, replicate 2 = 1.95e7; inactive.
Knock-down of CG5292 [DRSC15763] came out at: calcium entry signal, replicate 1 = 3.63e7; calcium entry signal, replicate 2 = 5.46e7; resting calcium signal, replicate 1 = 1.70e7; resting calcium signal, replicate 2 = 5.69e7; inactive.
Silencing of Fst [DRSC16491] resulted in: calcium entry signal, replicate 1 = 4.08e7; calcium entry signal, replicate 2 = 4.77e7; resting calcium signal, replicate 1 = 1.87e7; resting calcium signal, replicate 2 = 2.23e7; inactive.
Knock-down of CG17378 [DRSC02616] gave: calcium entry signal, replicate 1 = 3.83e7; calcium entry signal, replicate 2 = 3.62e7; resting calcium signal, replicate 1 = 1.86e7; resting calcium signal, replicate 2 = 1.69e7; inactive.
Knock-down of Eig71Ec [DRSC11150] came out at: calcium entry signal, replicate 1 = 3.53e7; calcium entry signal, replicate 2 = 3.93e7; resting calcium signal, replicate 1 = 1.70e7; resting calcium signal, replicate 2 = 1.75e7; inactive.
CG40006 [DRSC03787] gave calcium entry signal, replicate 1 = 2.25e7; calcium entry signal, replicate 2 = 3.56e7; resting calcium signal, replicate 1 = 1.05e7; resting calcium signal, replicate 2 = 1.48e7; inactive.
CG40006 [DRSC03809] scored calcium entry signal, replicate 1 = 2.27e7; calcium entry signal, replicate 2 = 4.46e7; resting calcium signal, replicate 1 = 1.02e7; resting calcium signal, replicate 2 = 1.68e7; inactive.
With knock-down of CG40006 [DRSC03814], the screen gave calcium entry signal, replicate 1 = 3.17e7; calcium entry signal, replicate 2 = 4.46e7; resting calcium signal, replicate 1 = 1.40e7; resting calcium signal, replicate 2 = 2.01e7; inactive.
Depletion of CG40006 [DRSC03817] gave: calcium entry signal, replicate 1 = 2.99e7; calcium entry signal, replicate 2 = 4.45e7; resting calcium signal, replicate 1 = 1.34e7; resting calcium signal, replicate 2 = 1.77e7; inactive.
For CG33230 [DRSC08602], the values are calcium entry signal, replicate 1 = 3.27e7; calcium entry signal, replicate 2 = 2.58e7; resting calcium signal, replicate 1 = 1.48e7; resting calcium signal, replicate 2 = 1.28e7; inactive.
Against Pask [DRSC04337] the deposit lists calcium entry signal, replicate 1 = 3.97e7; resting calcium signal, replicate 1 = 1.88e7; inactive.
cyp33 [DRSC07600] showed calcium entry signal, replicate 1 = 2.85e7; calcium entry signal, replicate 2 = 2.42e7; resting calcium signal, replicate 1 = 1.31e7; resting calcium signal, replicate 2 = 1.10e7; inactive.
Against sowi [DRSC12558], the values are calcium entry signal, replicate 1 = 4.91e7; calcium entry signal, replicate 2 = 3.99e7; resting calcium signal, replicate 1 = 2.29e7; resting calcium signal, replicate 2 = 1.89e7; inactive.
ClC-a [DRSC14947] gave calcium entry signal, replicate 1 = 3.39e7; calcium entry signal, replicate 2 = 4.24e7; resting calcium signal, replicate 1 = 1.74e7; resting calcium signal, replicate 2 = 2.23e7; inactive.
Against ClC-a [DRSC14948], the entry reads calcium entry signal, replicate 1 = 3.14e7; calcium entry signal, replicate 2 = 3.92e7; resting calcium signal, replicate 1 = 1.67e7; resting calcium signal, replicate 2 = 2.02e7; inactive.
ClC-a [DRSC16142] scored calcium entry signal, replicate 1 = 3.24e6; calcium entry signal, replicate 2 = 3.28e7; resting calcium signal, replicate 1 = 2.93e6; resting calcium signal, replicate 2 = 1.51e7; inactive.
CG42850 (retired record) [DRSC00872] showed calcium entry signal, replicate 1 = 6.63e7; calcium entry signal, replicate 2 = 3.46e7; resting calcium signal, replicate 1 = 3.19e7; resting calcium signal, replicate 2 = 1.82e7; inactive.

Single entries from the entries so far:
Srp72 [DRSC15800], activity call = inactive
For “activity call”, CG34434 [DRSC18134] reads inactive
Eig71Ec [DRSC11150], resting calcium signal, replicate 1: 1.70e7
